The list shows a part of the results. Repeats are few or missing, and single values can be far off.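 Imaging used 1,536-well plates; nuclei positive for cleaved PARP by antibody were divided by total DNA-stained nuclei to yield the apoptosis fraction. Doses for screening kept most cells viable, and cell lines differ markedly in resting and induced cleaved-PARP levels.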

In the assay the test system is UACC62. The experiment in a line: cleaved PARP positive nuclei fraction relative to DMSO control; melanoma cells; higher = more apoptosis. To be noted: library dose: low library concentration; 72 h.
As to `C#Cc1cccc(Nc2ncnc3cc(OCCOC)c(OCCOC)cc23)c1` [erlotinib] + O=C(Nc1ccccc1)c1cc([N+](=O)[O-])ccc1Cl [GW9662] (first compound 0.8 µM, partner dose 2 µM), the “cleaved PARP positive nuclei fraction” value was 127%.
In the case of `Cc1cc(N2CCOCC2)cc2[nH]c(-c3c(NC[C@@H](O)c4cccc(Cl)c4)cc[nH]c3=O)nc12` + O=C(O)C(=O)Nc1sc2c(c1C(=O)O)CCNC2 [TCS401] (first compound 0.2 µM, partner dose 1.66667 µM), the “cleaved PARP positive nuclei fraction” value is 125%.
On to `Nc1cccc2c1CN(C1CCC(=O)NC1=O)C2=O` (centres undefined) [lenalidomide] + Oc1nc(-c2ccc(C(F)(F)F)cc2)nc2c1CSCC2 [XAV939] (first compound 1 µM, partner dose 2 µM), for which the “cleaved PARP positive nuclei fraction” value came to 95.3%.
For `Cn1c(Nc2ccc(C(F)(F)F)cc2)nc2cc(Oc3ccnc(-c4ncc(C(F)(F)F)[nH]4)c3)ccc21` + COc1ccc(COc2ccc(Cc3cnc(N)nc3N)cc2OC)cc1 [GW2580] (first compound 0.08 µM, partner dose 1 µM), the “cleaved PARP positive nuclei fraction” value came out at 131%.
As to `C[C@]1(c2nc3c(C(N)=O)cccc3[nH]2)CCCN1` [Veliparib] + CC(C)CCN1c2nc(Nc3cc(F)c(O)c(F)c3)ncc2N(C)C(=O)C1C [BID1870] (first compound 1.4 µM, partner dose 0.2 µM), the “cleaved PARP positive nuclei fraction” value was found to be 47.3%.
For `C=CCn1c(=O)c2cnc(Nc3ccc(N4CCN(C)CC4)cc3)nc2n1-c1cccc(C(C)(C)O)n1` + CCc1ccc(CCOc2ccc(CC3SC(=O)NC3=O)cc2)nc1 [pioglitazone] (first compound 0.02 µM, partner dose 2 µM), the “cleaved PARP positive nuclei fraction” value worked out at 88.1%.
With `C=CCn1c(=O)c2cnc(Nc3ccc(N4CCN(C)CC4)cc3)nc2n1-c1cccc(C(C)(C)O)n1` + COC(=O)c1sccc1S(=O)(=O)Nc1ccc(Nc2ccccc2)cc1OC [GSK0660] (first compound 0.02 µM, partner dose 1 µM), the “cleaved PARP positive nuclei fraction” value turned out to be 94.4%.
In the case of `C#Cc1cccc(Nc2ncnc3cc(OCCOC)c(OCCOC)cc23)c1` [erlotinib] + COc1ccc2c(c1)CCC1C2CCC2(C)C(NCCCCCCN3C(=O)C=CC3=O)CCC12 [U73122] (first compound 0.8 µM, partner dose 0.4 µM), the “cleaved PARP positive nuclei fraction” value is 95%.
As for `C=CCn1c(=O)c2cnc(Nc3ccc(N4CCN(C)CC4)cc3)nc2n1-c1cccc(C(C)(C)O)n1` + O=C1NC(=O)/C(=C/c2ccc(-c3ccc(F)cc3O)o2)S1 [AS252424] (first compound 0.02 µM, partner dose 1 µM), the “cleaved PARP positive nuclei fraction” value is 50.9%.
Turning to `CC1(C)NC(=O)N(c2ccc([N+](=O)[O-])c(C(F)(F)F)c2)C1=O` [nilutamide] + COc1ccc(-c2ccc3c(N4CCOCC4)nc(N4C[C@@H](C)O[C@@H](C)C4)nc3n2)cc1CO [KU0063794] (first compound 1 µM, partner dose 0.02 µM), the “cleaved PARP positive nuclei fraction” value is 50.2%.
Consider `CC(C)(C)c1cnc(CSc2cnc(NC(=O)C3CCNCC3)s2)o1` + Oc1nc(-c2ccc(C(F)(F)F)cc2)nc2c1CSCC2 [XAV939] (first compound 0.01 µM, partner dose 2 µM), for which the “cleaved PARP positive nuclei fraction” value was determined as 103%.
On to `COCC[n+]1c2c(n(Cc3cnccn3)c1C)C(=O)c1ccccc1C2=O` + COc1ccc(COc2ccc(Cc3cnc(N)nc3N)cc2OC)cc1 [GW2580] (first compound 0.0004 µM, partner dose 1 µM), for which the “cleaved PARP positive nuclei fraction” value came to 141%.
With `Nc1cccc2c1CN(C1CCC(=O)NC1=O)C2=O` (centres undefined) [lenalidomide] + COc1cc2ncnc(Nc3ccc(Oc4ccccc4)cc3)c2cc1OC [SrcI1] (first compound 1 µM, partner dose 2 µM), the “cleaved PARP positive nuclei fraction” value turned out to be 75.4%.
Take `CO[C@@H]1[C@H](N(C)C(=O)c2ccccc2)C[C@H]2O[C@]1(C)n1c3ccccc3c3c4c(c5c6ccccc6n2c5c31)C(=O)NC4` [Midostaurin] + COc1ccc2c(c1)CCC1C2CCC2(C)C(NCCCCCCN3C(=O)C=CC3=O)CCC12 [U73122] (first compound 0.08 µM, partner dose 0.4 µM): the “cleaved PARP positive nuclei fraction” value stood at 175%.

Values taken from the supplement of paper PMC4604168 (melanoma cell lines).
